Assay results as given in PMC7459424.
No constants are given. Whether binding was seen depends on the method and setting. Binding seen in cells or lysates may run through a third protein. Some results given as binding are weak or reduced against the parent protein; the word gives no strength. Tags and fused reporters may be left off the sequences shown.

Amino acid sequences for entries named in this document (tags omitted).
UniProt Q9QYP6: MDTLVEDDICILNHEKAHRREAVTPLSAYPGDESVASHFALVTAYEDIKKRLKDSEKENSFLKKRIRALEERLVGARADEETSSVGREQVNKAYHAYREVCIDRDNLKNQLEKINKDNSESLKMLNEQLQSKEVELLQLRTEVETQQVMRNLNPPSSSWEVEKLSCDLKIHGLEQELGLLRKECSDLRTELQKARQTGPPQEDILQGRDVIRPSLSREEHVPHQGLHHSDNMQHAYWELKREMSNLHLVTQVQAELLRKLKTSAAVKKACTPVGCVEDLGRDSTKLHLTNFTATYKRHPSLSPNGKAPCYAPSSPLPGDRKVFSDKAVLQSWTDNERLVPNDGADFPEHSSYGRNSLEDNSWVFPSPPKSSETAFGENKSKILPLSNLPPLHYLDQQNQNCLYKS

What was measured:
Flag-tagged IKKε = target: T1, Flag-tagged IKKε (UniProt Q9R0T8); assay: co-IP; lysates of ST2 TBK1/IKKε DKO cells reconstituted with Flag-tagged TBK1, IKKε or GFP; anti-Flag immunoprecipitation, immunoblot
T1 sequence: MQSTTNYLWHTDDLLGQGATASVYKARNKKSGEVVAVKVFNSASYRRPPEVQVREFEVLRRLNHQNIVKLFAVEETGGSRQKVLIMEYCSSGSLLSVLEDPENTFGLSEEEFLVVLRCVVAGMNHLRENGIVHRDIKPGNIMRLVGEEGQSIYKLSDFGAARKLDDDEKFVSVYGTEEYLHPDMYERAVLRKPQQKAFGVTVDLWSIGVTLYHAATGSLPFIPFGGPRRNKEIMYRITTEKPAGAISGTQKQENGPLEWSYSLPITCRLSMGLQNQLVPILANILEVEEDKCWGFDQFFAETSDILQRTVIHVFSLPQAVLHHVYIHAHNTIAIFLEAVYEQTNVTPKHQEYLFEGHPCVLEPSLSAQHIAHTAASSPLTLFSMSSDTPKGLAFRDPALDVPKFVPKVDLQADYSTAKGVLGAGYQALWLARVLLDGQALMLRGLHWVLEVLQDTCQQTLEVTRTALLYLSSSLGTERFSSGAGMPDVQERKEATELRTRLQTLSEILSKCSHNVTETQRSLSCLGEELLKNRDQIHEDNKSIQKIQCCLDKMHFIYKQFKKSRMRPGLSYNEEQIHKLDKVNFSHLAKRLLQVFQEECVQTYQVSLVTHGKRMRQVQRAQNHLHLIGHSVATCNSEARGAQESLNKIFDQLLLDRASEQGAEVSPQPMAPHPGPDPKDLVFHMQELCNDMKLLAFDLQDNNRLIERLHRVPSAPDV

Flag-tagged TBK1 = target: T2, Flag-tagged TBK1 (UniProt Q9WUN2); assay: as above
T2 sequence: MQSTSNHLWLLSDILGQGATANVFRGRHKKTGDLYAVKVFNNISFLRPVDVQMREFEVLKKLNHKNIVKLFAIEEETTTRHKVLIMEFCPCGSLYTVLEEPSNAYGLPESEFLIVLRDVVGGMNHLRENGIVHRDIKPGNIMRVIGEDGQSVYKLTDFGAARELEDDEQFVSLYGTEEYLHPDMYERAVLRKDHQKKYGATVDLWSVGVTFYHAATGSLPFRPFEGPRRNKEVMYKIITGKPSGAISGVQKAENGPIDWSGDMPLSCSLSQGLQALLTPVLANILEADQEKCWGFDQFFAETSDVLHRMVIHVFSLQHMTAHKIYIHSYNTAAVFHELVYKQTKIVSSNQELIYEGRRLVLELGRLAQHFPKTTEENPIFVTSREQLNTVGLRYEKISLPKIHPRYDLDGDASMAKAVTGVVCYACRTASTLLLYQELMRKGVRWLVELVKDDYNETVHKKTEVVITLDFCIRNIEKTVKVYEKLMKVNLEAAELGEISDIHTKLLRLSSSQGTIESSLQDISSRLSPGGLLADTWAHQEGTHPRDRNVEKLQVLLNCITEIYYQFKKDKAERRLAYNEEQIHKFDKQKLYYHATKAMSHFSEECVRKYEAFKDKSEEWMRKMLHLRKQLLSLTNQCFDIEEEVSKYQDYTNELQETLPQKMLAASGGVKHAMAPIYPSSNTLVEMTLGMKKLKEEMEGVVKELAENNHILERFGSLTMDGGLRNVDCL

In the case of NAP1 (from UniProt Q9QYP6 1-405), the binding (Flag-tagged IKKε) is reported as “binds” and the binding (Flag-tagged TBK1) is reported as “binds”.

B1: TANK (protein, UniProt P70347 1-448)
chain: MSLKRHSLRRNACHLETRAGIPTILYSDATGQRGMDKNIGEQLNRAYEAFRQACMDRDSAVRELQQKQTENYEQRIREQQEQLSFQQNLIDRLKSQLLLVDSSRDNSYGYVPLLEDSDRRKNNLTLDEPHDKVKLGTLRDKQSKVRRQEVSSGKESAKGLNIPLHHERDNIEKTFWDLKEEFHRICLLAKAQKDHLSKLNIPDIATDTQCSVPIQCTDKTEKQEALFKPQAKDDINRGMSCVTAVTPRGLGRDEEDTSFESLSKFNVKFPPMDNDSIFLHSTPEAPSILAPATPETVCQDRFNMEVRDNPGNFVKTEETLFEIQGIDPITSAIQNLKTTDKTNPSNLRATCLPAGDHNVFYVNTFPLQDPPDAPFPSLDSPGKAVRGPQQPFWKPFLNQDTDLVVPSDSDSELLKPLVCEFCQELFPPSITSRGDFLRHLNTHFNGET
B1 was tested, and the binding (Flag-tagged IKKε) was “binds” and the binding (Flag-tagged TBK1) was “binds”.
